Measurements from patent publication US20210269522A1.
Results are given in words; binding and its absence hold for the method and conditions named. Some entries that bind do so weakly or less than the wild type.

The chains behind the UniProt entries cited, without tags or fusion partners. Where a name states a change or a piece, a line headed by the entry shows the natural chain unless it says otherwise.
UniProt Q08722: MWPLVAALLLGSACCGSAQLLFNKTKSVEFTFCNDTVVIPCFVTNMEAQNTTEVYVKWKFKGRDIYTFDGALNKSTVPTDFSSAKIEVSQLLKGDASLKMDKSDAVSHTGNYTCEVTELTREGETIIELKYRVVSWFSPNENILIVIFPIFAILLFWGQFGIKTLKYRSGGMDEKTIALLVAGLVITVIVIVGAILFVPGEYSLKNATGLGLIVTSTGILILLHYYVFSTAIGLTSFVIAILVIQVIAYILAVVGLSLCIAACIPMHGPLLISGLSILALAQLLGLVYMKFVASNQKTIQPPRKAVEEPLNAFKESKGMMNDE

Experiments:
[1] = biological target: human CD47-ECD (human) (UniProt Q08722); experiment: ELISA, figure legend of FIG. 20
[2] = biological target: human CD47 on Raji cells (human) (UniProt Q08722); experiment: flow cytometry, figure legend of FIG. 21
[3] = biological target: CD47 on human red blood cells (human) (UniProt Q08722); experiment: RBC binding assay, figure legend of FIG. 25
[4] = biological target: CD47 on human red blood cells (human) (UniProt Q08722); experiment: RBC binding assay (FIG. 25)

binding [1]: binds
binding [2]: binds
binding [3]: binds
binding [4]: binds
B1: CD47 antibody 34C5 (antibody, V domains shown)
VH: QVQLVQSGAEVKKPGSSVKVSCKASGYTFSSYYMHWVRQAPGQGLEWMGEINPNNARINFNEKFKTRVTLTVDKSTSTAYMELSSLRSEDTAVYYCTRGYYRYGAWFGYWGQGTLVTVSS
VL: DIQMTQSPSSLSASVGDRVTITCRASQDISDYLNWYQQKPGKAPKLLIYYISRLHSGVPSRFSGSGSGTDYTLTISSLQPEDFATYYCQQGHTLPWTFGGGTKVEIK
